This assay concerns the target ZNF217-FLAG (full-length wild-type ZNF217 fused to FLAG) (human) (UniProt O75362). Description: co-IP; MV4-11 cells transduced with ZNF217-FLAG lentivirus, lysed in NP-40 buffer with protease inhibitor; supernatant incubated with protein A/G beads and anti-flag antibody or IgG, washed three times; Western blot. On the technique in general: Immunoblotting shows a protein as a band on a membrane.

Sequences of proteins named here, by UniProt entry; tags and fusion partners are left off.
UniProt O75362: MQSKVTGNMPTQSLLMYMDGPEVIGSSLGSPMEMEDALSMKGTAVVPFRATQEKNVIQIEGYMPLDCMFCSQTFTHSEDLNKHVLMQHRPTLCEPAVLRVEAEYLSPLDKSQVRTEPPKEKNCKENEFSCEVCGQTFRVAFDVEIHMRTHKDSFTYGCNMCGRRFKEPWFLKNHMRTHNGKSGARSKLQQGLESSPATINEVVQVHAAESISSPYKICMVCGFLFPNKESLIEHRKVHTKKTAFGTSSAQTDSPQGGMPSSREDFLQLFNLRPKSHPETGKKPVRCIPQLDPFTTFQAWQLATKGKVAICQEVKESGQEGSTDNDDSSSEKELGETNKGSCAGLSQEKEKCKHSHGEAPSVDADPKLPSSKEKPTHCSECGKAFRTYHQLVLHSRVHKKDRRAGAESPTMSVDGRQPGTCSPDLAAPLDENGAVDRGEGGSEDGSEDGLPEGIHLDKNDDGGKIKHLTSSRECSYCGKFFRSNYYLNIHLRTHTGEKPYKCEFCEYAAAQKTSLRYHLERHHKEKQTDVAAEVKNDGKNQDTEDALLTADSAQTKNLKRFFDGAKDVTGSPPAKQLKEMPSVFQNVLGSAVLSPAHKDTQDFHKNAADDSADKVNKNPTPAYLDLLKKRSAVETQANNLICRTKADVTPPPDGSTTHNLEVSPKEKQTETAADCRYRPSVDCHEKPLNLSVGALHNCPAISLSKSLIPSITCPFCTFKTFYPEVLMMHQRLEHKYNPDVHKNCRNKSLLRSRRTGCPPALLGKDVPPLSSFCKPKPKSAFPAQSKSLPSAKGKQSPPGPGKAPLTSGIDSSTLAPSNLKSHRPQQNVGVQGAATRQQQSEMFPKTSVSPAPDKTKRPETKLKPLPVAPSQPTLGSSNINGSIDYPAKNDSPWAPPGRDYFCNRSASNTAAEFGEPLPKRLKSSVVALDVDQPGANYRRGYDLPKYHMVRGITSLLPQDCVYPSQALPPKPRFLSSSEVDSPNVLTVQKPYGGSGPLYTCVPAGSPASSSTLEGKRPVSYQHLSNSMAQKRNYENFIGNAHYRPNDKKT
UniProt P32519: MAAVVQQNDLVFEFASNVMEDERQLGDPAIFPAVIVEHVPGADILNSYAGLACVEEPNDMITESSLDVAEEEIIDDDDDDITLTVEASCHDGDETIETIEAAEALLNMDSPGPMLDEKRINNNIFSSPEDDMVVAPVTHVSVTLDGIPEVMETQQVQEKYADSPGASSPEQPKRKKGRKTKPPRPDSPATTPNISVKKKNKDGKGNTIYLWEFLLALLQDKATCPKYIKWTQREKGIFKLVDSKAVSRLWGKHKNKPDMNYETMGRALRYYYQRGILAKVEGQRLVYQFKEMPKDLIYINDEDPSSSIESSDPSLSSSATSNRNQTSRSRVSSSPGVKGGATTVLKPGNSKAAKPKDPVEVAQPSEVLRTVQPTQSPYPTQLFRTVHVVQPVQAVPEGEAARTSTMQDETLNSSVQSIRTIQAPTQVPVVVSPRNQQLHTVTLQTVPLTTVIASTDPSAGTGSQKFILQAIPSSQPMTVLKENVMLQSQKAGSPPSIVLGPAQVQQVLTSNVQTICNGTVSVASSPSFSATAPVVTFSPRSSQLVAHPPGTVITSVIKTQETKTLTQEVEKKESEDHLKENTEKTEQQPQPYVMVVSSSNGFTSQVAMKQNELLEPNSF
UniProt Q14814: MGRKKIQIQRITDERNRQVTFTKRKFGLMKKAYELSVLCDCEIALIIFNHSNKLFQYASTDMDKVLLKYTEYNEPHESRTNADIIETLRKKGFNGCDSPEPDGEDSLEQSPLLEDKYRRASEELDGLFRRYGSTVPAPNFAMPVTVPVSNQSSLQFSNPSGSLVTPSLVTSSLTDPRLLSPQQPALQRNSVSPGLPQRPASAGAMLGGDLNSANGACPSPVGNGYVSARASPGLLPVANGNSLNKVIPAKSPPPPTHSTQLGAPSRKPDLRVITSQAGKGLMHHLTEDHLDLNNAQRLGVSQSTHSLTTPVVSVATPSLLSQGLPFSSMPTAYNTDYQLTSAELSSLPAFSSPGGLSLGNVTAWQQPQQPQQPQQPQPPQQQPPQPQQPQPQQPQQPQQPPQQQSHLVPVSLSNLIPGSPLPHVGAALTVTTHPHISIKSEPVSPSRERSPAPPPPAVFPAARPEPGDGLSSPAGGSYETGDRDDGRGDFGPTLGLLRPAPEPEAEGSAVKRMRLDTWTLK

No constants are given. Whether binding was seen depends on the method and setting. In cells and extracts the contact can be indirect. Some binding calls cover weakened binding; strength is not graded here.

Take ELF1 (from UniProt P32519 1-619): the binding result is “binds”.
Turning to MEF2D (from UniProt Q14814 1-521), the binding entry is given as “binds”.

For the origin of these results see article PMC11900805.
